Patent publication US20250313621A1
These are yes or no findings as the source states them, for the method shown. Some entries that bind do so weakly or less than the wild type.

The chains behind the UniProt entries cited, without tags or fusion partners. Where a name states a change or a piece, a line headed by the entry shows the natural chain unless it says otherwise.
UniProt P55085: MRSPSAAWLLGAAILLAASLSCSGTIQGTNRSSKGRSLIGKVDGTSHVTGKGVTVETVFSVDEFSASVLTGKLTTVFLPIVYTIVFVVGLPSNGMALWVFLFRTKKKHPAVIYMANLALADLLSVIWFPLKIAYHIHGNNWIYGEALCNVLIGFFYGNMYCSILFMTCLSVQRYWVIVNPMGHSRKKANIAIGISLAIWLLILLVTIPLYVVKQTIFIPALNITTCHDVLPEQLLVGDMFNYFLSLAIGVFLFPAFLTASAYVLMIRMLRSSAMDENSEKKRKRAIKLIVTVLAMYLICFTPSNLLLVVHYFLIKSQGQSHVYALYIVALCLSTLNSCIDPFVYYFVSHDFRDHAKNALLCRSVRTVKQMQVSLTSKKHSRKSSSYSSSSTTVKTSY

Columns and labels:
[1] = molecular target: Soluble PAR2 StaR (recombinant human PAR2 StaR protein in detergent, construct not stated) (human) (UniProt P55085); experiment: in depth characterisation, purified PAR2
[2] = molecular target: Wildtype human PAR2 expressed on cells (human) (UniProt P55085); experiment: in depth characterisation, cell surface expressed PAR2
[3] = molecular target: Wildtype human PAR2 expressed on cells (human) (UniProt P55085); experiment: flow cytometry on BacMam-infected HEK293F cells, 20 nM antibody
[4] = molecular target: Wildtype human PAR2 expressed on cells (human) (UniProt P55085); experiment: flow cytometry on over-expressing cells, overnight at about 5 C with sodium azide
[5] = molecular target: Wildtype human PAR2 expressed on cells (human) (UniProt P55085); experiment: flow cytometry on BacMam-infected HEK293F cells, 20 nM antibody, APC anti-human IgG
[6] = molecular target: Soluble PAR2 StaR (recombinant human PAR2 StaR protein in detergent, construct not stated) (human) (UniProt P55085); experiment: SPR Biacore; Y22883 captured to 280-320 RU, 100 nM PAR2 injected, then pH 6.0 buffer for 5 minutes
[7] = molecular target: Wildtype human PAR2 expressed on cells (human) (UniProt P55085); experiment: flow cytometry on HEK293F-humanPAR2 (3.0E+06 cells/mL, w/ NaN3), overnight at about 5 C, S/BG
[8] = molecular target: Soluble PAR2 StaR (recombinant human PAR2 StaR protein in detergent, construct not stated) (human) (UniProt P55085); experiment: SPR (Biacore), Y22883 captured to 280-320 RU, 100 nM PAR2 injected for 2 min, pH 6.0 buffer injected during dissociation
[9] = molecular target: Wildtype human PAR2 expressed on cells (human) (UniProt P55085); experiment: Human PAR2 binding (overview of maturation candidates)
[10] = molecular target: PAR2-2: P166: 1-377, de-glycosylated: N30Q, N222Q, pFastBacHis StrepII, full length (human) (UniProt P55085); experiment: Koff-ranking ELISA, antibody titration on soluble FL-PAR2 StaR, lower panel, S/BG
[11] = molecular target: PAR2-1: P151: 55-377, glycosylated, pFastBacHisStrepII, truncated (human) (UniProt P55085); experiment: Koff-ranking ELISA, antibody titration on soluble Truncated PAR2 StaR, lower panel, S/BG
[12] = molecular target: PAR2-2: P166: 1-377, de-glycosylated: N30Q, N222Q, pFastBacHis StrepII, full length (human) (UniProt P55085); experiment: Koff-ranking ELISA, antibody titration on FL-PAR2 StaR NanoDisc (deglyc), upper panel, S/BG
[13] = molecular target: PAR2-1: P151: 55-377, glycosylated, pFastBacHisStrepII, truncated (human) (UniProt P55085); experiment: Koff-ranking ELISA, antibody titration on Truncated PAR2 StaR NanoDisc (low glyc), upper panel, S/BG
[14] = molecular target: PAR2-2: P166: 1-377, de-glycosylated: N30Q, N222Q, pFastBacHis StrepII, full length (human) (UniProt P55085); experiment: ELISA, antibody coated at 5 ug/mL, FL-StaR nanodisc at 50 and 5 nM, empty nanodisc as control, S/BG [continued]
[15] = molecular target: PAR2-2: P166: 1-377, de-glycosylated: N30Q, N222Q, pFastBacHis StrepII, full length (human) (UniProt P55085); experiment: competition ELISA on full length PAR2 StaR nanodisc, 50 nM candidate mAb with 200, 100, 50, 25, 0 nM R&D anti-huPAR2 (MAB3949) as competitor, S/BG
[16] = molecular target: Wildtype human PAR2 expressed on cells (human) (UniProt P55085); experiment: flow cytometry on HEK293F-humanPAR2 (3.0E+06 cells/mL), S/BG [continued]
[17] = molecular target: V5His-huPAR2 on Flp-In CHO cells (human) (UniProt P55085); experiment: flow cytometry, Fab fragments on human PAR2 expressing CHO cells (CHO line not further named in the legend), S/BG

Measured: binding

B1: Y022883 (antibody, human IgG1, lambda, V domains shown)
VH: EVQLLESGGGLVQPGGSLRLSCAASGFSFTRYAISWVRQAPGKGLEWVSVISGHGSEANYAESVKGRFTISRDNSKNTLYLQMNSLRAEDTAVYYCARGFHYTHSGKRYYYPFDIWGQGTLVTVSS
VL: QSALTQPASVSGSPGQSITISCTGTSSDVGSYNLVSWYQQHPGKAPKLMIYEGSKRPSGVSNRFSGSKSGNTASLTISGLQAEDEADYYCSQYATFIAFAVFGGGTKLTVLG
binds: [1] | [2] | [3] | [4] | [5] | [6] | [7] | [8]

B2: Y021171 (antibody, V domains shown)
VH: EVQLVESGGGLVKPGGSLRLSCAASGFTFSSYSINWVRQAPGKGLEWVSSISSSSSYTYYAESVKGRFTISRDNAKNSLYLQMNSLRAEDTAVYYCARAASGFAIFDYWGQGTLVTVSS
VL: DIQMTQSPSSVSASVGDRVTITCRASQGISSWLAWYQQKPGKAPKLLIYAASSLQSGVPSRFSGSGSGTDFTLTISSLQPEDFATYYCQQTHYVPLTFGQGTKVEIKR
binds: [9] | [10] | [11] | [12] | [13] | [14] | [15]

B3: Fab Y022877 (Fab, V domains shown)
VH: EVQLLESGGGLVQPGGSLRLSCAASGFTFSRYAMTWVRQAPGKGLEWVSTISGLGQEAYYAGSVKGRFTISRDNSKNTLYLQMNSLRAEDTAVYYCARGFHYTHSGKRYYYPFDIWGQGTLVTVSS
VL: QSALTQPASVSGSPGQSITISCTGTSSDVGSYNLVSWYQQHPGKAPKLMIYEGSKRPSGVSNRFSGSKSGNTASLTISGLQAEDEADYYCSQYATFIAFAVFGGGTKLTVLG
binds: [16] | [4] | [7] | [17]

B4: Fab Y022883 (Fab, V domains shown)
VH: EVQLLESGGGLVQPGGSLRLSCAASGFSFTRYAISWVRQAPGKGLEWVSVISGHGSEANYAESVKGRFTISRDNSKNTLYLQMNSLRAEDTAVYYCARGFHYTHSGKRYYYPFDIWGQGTLVTVSS
VL: QSALTQPASVSGSPGQSITISCTGTSSDVGSYNLVSWYQQHPGKAPKLMIYEGSKRPSGVSNRFSGSKSGNTASLTISGLQAEDEADYYCSQYATFIAFAVFGGGTKLTVLG
binds: [16] | [4] | [7] | [17]

B5: Fab Y022870 (Fab, V domains shown)
VH: EVQLLESGGGLVQPGGSLRLSCAASGFSFSRYAITWVRQAPGKGLEWVSTISALGLETYYAESVRGRFTISRDNSKNTLYLQMNSLRAEDTAVYYCARGFHYTHSGKRYYYPFDIWGQGTLVTVSS
VL: QSALTQPASVSGSPGQSITISCTGTSSDVGSYNLVSWYQQHPGKAPKLMIYEGSKRPSGVSNRFSGSKSGNTASLTISGLQAEDEADYYCSQYATFIAFAVFGGGTKLTVLG
binds: [4] | [7]

B6: Y022870 (antibody, human IgG1, lambda, V domains shown)
VH: EVQLLESGGGLVQPGGSLRLSCAASGFSFSRYAITWVRQAPGKGLEWVSTISALGLETYYAESVRGRFTISRDNSKNTLYLQMNSLRAEDTAVYYCARGFHYTHSGKRYYYPFDIWGQGTLVTVSS
VL: QSALTQPASVSGSPGQSITISCTGTSSDVGSYNLVSWYQQHPGKAPKLMIYEGSKRPSGVSNRFSGSKSGNTASLTISGLQAEDEADYYCSQYATFIAFAVFGGGTKLTVLG
binds: [2] | [4] | [7]

B7: Y022877 (antibody, human IgG1, lambda, V domains shown)
VH: EVQLLESGGGLVQPGGSLRLSCAASGFTFSRYAMTWVRQAPGKGLEWVSTISGLGQEAYYAGSVKGRFTISRDNSKNTLYLQMNSLRAEDTAVYYCARGFHYTHSGKRYYYPFDIWGQGTLVTVSS
VL: QSALTQPASVSGSPGQSITISCTGTSSDVGSYNLVSWYQQHPGKAPKLMIYEGSKRPSGVSNRFSGSKSGNTASLTISGLQAEDEADYYCSQYATFIAFAVFGGGTKLTVLG
binds: [1] | [2] | [4] | [7]

B8: Y022054 (antibody, V domains shown)
VH: EVQLLESGGGLVQPGGSLRLSCAASGFTFSSYAISWVRQAPGKGLEWVSAISGSGGSTYYAESVKGRFTISRDNSKNTLYLQMNSLRAEDTAVYYCARGYAEFGVWGQGTLVTVSS
VL: DIQMTQSPSSLSASVGDRVTITCRASQSISSYLNWYQQKPGKAPKLLIYAASSLQSGVPSRFSGSGSGTDFTLTISSLQPEDFATYYCQQTWGGPQTFGQGTKVEIKR
binds: [9]
